The results in this text go back to patent US20240041978A1, “LA PROTEIN AS A NOVEL REGULATOR OF OSTEOCLASTOGENESIS” (The U.S.A., as Represented by the Secretary, Department of …, priority 2021, published 2024).

The chains behind the UniProt entries cited, without tags or fusion partners. Residues count along the entry.
UniProt P08758, residues 2-320: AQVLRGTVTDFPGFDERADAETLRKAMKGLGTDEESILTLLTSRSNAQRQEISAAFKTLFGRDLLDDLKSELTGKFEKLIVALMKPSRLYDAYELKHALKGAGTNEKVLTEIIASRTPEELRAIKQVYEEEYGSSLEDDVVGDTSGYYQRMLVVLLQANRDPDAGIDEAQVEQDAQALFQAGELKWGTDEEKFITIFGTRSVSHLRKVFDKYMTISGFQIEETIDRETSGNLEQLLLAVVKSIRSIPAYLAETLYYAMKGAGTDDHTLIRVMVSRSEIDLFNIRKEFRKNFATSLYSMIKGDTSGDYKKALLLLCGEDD

In this assay the target is T1, La protein (Lupus autoantigen), native, in lysates of fusing human osteoclasts (human) (UniProt P05455).
T1 sequence: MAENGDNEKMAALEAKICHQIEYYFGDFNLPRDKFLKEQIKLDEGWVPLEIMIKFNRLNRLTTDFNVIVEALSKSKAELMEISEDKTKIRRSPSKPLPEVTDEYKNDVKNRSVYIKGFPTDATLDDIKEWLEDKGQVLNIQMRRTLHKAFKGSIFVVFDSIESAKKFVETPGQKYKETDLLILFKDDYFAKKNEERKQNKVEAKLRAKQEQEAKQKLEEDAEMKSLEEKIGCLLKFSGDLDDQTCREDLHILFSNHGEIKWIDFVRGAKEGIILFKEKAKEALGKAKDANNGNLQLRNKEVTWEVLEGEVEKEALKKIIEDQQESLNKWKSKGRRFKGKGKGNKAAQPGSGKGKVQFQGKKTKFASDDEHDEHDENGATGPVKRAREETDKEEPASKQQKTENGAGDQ
Put plainly: co-immunoprecipitation with α-Anx A5 from fusing human osteoclasts, immunoblot. For orientation: In western blotting, separated proteins are transferred to a membrane and probed.

Results are given in words; binding and its absence hold for the method and conditions named. Binding seen in cells or lysates may run through a third protein. Some binding calls cover weakened binding; strength is not graded here. Sequences can lack the tags named with a protein.

On to “Annexin A5 (Anx A5), native, in fusing human osteoclasts (from UniProt P08758 2-320)”, for which the binding result is “binds”.
